According to the supplement of paper PMC10849652:
This is one part of the list.

By UniProt entry, the sequences of proteins in these tests, tags left out. Where a name states a change or a piece, a line headed by the entry shows the natural chain unless it says otherwise.
UniProt Q70Z53: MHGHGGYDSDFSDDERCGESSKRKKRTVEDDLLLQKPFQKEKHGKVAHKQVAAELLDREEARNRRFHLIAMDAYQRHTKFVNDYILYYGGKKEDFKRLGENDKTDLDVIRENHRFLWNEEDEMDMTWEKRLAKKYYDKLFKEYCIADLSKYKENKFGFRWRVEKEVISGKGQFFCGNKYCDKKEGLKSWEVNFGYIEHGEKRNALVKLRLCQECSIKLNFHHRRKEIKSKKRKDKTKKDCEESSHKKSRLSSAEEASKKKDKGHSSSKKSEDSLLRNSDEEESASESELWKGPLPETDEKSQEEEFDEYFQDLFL
UniProt O94915: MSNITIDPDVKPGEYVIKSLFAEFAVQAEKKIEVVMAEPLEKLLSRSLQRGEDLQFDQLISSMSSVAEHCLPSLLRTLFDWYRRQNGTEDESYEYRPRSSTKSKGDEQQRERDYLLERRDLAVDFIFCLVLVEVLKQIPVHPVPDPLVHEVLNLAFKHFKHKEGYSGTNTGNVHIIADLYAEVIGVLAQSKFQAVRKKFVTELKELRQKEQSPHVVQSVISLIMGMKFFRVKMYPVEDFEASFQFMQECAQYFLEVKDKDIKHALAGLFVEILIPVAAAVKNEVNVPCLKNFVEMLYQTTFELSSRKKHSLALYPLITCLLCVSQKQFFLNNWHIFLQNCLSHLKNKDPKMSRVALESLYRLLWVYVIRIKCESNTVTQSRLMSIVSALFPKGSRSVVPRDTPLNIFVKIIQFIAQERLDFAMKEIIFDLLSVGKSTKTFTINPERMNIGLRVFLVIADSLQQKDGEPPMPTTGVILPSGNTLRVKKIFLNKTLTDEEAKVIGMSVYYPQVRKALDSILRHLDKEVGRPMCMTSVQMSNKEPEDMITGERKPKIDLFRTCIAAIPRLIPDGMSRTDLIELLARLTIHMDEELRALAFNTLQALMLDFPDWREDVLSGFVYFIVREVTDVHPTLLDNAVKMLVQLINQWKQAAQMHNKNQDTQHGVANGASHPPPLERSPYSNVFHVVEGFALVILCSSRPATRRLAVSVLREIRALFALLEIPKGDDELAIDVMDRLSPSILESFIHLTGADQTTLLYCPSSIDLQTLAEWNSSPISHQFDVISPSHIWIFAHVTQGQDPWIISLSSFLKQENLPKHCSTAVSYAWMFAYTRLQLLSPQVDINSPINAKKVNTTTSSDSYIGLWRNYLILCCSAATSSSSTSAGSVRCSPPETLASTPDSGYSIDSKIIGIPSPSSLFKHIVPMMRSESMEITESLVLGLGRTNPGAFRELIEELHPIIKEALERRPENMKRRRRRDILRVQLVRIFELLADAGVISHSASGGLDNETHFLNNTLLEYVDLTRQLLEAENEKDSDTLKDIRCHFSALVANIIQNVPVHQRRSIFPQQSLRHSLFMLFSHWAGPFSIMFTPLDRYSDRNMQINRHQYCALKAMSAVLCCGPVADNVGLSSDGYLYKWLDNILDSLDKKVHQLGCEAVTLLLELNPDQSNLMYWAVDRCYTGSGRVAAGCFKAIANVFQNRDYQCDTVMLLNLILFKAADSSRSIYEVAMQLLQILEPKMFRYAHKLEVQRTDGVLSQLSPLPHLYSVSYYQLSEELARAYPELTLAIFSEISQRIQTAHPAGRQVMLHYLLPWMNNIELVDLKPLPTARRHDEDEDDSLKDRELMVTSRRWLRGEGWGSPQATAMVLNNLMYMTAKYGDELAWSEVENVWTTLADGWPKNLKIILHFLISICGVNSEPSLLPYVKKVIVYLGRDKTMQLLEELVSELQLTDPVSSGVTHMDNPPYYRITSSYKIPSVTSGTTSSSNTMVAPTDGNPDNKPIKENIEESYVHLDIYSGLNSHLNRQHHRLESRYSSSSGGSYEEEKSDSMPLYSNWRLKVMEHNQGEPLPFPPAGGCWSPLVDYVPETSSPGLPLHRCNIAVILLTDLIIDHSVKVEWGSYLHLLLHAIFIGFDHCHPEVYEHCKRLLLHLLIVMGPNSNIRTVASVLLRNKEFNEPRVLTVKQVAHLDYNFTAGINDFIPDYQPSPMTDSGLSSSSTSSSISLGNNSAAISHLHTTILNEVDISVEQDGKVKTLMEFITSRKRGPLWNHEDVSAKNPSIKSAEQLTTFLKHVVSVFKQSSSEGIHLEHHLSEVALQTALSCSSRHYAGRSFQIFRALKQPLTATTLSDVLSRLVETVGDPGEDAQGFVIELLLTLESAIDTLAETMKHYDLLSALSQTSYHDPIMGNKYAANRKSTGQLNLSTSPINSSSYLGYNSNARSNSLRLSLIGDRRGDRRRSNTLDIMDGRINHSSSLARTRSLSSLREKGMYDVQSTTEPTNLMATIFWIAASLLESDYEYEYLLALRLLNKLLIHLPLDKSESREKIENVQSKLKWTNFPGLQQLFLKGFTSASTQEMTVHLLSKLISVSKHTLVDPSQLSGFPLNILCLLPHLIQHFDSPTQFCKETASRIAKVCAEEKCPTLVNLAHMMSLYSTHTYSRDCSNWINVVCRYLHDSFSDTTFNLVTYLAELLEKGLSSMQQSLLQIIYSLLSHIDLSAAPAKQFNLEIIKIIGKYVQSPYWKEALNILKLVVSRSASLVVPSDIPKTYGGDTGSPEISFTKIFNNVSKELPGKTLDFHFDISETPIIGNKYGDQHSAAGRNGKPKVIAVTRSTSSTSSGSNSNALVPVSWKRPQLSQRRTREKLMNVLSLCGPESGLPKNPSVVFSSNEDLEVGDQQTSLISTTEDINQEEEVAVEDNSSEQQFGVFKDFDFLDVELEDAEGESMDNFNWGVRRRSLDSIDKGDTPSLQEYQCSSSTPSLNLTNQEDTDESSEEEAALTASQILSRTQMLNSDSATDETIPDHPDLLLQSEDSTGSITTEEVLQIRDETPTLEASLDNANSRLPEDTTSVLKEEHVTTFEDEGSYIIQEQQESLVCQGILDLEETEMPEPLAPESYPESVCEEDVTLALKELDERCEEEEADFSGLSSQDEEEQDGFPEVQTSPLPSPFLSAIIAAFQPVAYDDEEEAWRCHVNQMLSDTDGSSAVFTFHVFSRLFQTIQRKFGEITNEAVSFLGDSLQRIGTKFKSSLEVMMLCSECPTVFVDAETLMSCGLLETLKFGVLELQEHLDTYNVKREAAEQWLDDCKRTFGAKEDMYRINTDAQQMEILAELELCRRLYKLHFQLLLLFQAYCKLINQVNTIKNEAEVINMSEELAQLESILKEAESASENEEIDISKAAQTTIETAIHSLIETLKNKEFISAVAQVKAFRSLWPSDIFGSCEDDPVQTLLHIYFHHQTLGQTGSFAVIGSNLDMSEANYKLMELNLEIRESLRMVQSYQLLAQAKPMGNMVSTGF
UniProt Q9NXN4: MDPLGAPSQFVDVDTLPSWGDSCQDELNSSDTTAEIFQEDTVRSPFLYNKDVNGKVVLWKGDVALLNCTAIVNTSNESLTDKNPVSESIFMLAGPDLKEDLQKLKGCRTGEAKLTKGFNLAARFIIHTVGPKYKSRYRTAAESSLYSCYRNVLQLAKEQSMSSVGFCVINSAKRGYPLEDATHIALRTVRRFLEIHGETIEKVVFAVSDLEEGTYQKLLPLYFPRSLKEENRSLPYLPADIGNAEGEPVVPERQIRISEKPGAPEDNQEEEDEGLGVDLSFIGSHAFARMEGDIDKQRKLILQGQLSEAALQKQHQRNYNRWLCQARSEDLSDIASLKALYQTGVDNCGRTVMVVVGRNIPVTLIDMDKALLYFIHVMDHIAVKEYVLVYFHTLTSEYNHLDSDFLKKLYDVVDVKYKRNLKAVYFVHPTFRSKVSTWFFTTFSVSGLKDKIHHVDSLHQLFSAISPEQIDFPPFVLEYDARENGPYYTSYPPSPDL
UniProt Q3B7J2: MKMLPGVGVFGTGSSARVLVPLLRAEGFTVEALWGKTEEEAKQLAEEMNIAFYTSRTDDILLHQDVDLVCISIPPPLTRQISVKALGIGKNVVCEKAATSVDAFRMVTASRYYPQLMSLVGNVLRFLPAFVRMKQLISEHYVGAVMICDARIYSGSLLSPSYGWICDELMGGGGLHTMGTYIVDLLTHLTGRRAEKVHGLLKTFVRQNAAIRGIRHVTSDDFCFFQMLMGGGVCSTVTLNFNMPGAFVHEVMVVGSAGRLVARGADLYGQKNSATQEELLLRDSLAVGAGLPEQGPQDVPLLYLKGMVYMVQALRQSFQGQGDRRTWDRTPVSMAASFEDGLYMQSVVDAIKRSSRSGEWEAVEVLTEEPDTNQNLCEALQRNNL
UniProt Q8IVH2: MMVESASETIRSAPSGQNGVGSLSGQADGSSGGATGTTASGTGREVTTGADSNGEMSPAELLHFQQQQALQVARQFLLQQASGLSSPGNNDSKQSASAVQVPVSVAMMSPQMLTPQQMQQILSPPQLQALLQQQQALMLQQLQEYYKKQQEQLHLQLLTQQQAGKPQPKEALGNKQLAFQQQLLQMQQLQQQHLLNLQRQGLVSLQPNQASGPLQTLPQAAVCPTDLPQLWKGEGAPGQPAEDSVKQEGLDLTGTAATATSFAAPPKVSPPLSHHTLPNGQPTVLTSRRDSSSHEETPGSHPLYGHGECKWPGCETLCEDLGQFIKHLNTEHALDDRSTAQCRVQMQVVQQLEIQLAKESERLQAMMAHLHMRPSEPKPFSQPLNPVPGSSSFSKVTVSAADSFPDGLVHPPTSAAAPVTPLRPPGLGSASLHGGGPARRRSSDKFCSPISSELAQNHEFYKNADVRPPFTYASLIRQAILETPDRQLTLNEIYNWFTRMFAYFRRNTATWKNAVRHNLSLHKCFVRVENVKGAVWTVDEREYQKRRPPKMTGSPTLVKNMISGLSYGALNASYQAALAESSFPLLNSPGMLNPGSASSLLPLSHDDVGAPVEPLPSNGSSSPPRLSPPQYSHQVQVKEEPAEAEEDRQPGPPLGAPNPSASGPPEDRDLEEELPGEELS
UniProt P35637: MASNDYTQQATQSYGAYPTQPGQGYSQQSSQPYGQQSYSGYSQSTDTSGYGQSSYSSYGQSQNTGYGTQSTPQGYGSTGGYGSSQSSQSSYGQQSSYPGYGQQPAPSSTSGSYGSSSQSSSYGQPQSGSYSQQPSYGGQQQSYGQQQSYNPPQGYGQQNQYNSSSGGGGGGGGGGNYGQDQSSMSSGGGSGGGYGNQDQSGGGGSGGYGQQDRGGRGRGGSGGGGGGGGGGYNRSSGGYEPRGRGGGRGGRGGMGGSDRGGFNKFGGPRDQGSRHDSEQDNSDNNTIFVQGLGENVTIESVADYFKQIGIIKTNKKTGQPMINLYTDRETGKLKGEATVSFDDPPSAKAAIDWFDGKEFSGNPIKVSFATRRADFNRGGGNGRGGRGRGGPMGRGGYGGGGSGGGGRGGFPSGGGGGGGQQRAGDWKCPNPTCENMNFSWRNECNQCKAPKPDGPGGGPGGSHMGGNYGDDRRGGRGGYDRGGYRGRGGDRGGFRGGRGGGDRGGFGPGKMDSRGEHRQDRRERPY
UniProt P31150: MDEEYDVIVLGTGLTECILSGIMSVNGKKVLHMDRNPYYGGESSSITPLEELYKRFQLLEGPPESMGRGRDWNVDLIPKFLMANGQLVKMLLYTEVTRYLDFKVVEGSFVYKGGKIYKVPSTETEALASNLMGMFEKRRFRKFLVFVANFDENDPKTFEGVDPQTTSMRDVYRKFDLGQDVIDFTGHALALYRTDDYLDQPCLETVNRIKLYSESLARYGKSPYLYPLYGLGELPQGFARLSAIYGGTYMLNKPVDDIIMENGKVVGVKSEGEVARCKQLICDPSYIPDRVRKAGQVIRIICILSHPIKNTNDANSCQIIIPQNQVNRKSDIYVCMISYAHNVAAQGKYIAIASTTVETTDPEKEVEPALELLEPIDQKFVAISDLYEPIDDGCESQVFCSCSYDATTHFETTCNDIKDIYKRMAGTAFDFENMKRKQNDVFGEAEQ
UniProt Q8IXK2: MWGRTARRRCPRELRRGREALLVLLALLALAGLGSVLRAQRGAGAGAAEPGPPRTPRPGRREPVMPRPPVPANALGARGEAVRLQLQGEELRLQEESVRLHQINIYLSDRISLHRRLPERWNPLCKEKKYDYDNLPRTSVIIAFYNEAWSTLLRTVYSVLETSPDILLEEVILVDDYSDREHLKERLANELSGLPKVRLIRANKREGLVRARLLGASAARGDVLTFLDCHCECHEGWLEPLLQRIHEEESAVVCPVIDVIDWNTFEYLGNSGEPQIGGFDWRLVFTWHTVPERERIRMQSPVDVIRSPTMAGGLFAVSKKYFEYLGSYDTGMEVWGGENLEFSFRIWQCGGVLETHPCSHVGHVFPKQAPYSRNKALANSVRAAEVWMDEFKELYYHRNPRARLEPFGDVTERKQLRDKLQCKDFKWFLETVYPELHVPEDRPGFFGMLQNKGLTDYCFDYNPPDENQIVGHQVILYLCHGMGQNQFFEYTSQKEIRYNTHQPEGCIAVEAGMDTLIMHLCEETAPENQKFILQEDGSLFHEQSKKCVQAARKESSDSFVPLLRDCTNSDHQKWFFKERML
UniProt P60520, whole entry, looked up: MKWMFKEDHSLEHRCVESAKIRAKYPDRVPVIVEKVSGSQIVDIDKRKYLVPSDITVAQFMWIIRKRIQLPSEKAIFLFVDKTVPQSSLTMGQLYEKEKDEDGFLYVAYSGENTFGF

How the values were obtained:
Assay in all cases: log2 fold change, soluble protein after heating vs DMSO (PISA); higher = thermal stabilisation; K562 lysate, 10 uM; active = over 0.2 and 3.5 SD of the protein, either way, in both replicates (recomputed)
[1] = compound: C1=CC=C(C=C1)[C@H](COC2=CC3=C(C=C2)NC(=O)N3)NC(=O)C4=CC=CN(C4=O)CC5=CC(=C(C=C5)F)F
Procedure, shortened: (§1)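 Dounce homogenisation of K562 pellets in PBS pH 7.4 with 1 mM MgCl2 produced a crude extract, used at 1 mg/mL protein. Exposure to 10 μM compound lasted 30 min, and aliquots were then heated for 3 min across 48°C-58°C, pooled and brought to 0.5% NP-40 at 4°C. The supernatant after 21,000xg for 90 min was quantified by TMTpro 16plex LC-MS/MS with channel sums equalised. Duplicate values are given as log-two fold change in thermal stability relative to solvent controls.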

[2] = compound: CC1=C(SC2=C1C(=N[C@H](C3=NN=C(N32)C)CC(=O)N)C4=CC=C(C=C4)Cl)C
Procedure, shortened: as §1

[3] = compound: CC1=C2C(=CC=C1)N=C(N(C2=O)C3=CC=CC=C3C)CN4C=NC5=C(N=CN=C54)N
Procedure, shortened: as §1

[4] = compound: Cc1sc2c(c1C)C(c1ccc(Cl)cc1)=N[C@@H](CC(=O)OC(C)(C)C)c1nnc(C)n1-2
Procedure, shortened: as §1

[5] = compound: c1ccc([C@@H]2C[C@H]2NC2CCNCC2)cc1
Procedure, shortened: as §1

Measured: log2 fold change

FRA10AC1 (UniProt Q70Z53)
inactive: [1] 0.033 | [2] 0.009 | [3] 0.008 | [4] -0.012 | [5] 0.061

FRYL (UniProt O94915)
inactive: [1] -0.032 | [2] 0 | [3] 0.008 | [4] 0.013 | [5] 0.018

GEMIN2 (UniProt O14893)
inactive: [1] -0.009 | [2] 0.01 | [3] -0.023 | [4] 0.015 | [5] -0.043

GAMT (UniProt Q14353)
inactive: [1] -0.025 | [2] -0.083 | [3] -0.002 | [4] 0.114 | [5] 0.005

GABPB1 isoform 3 (UniProt Q06547)
inactive: [1] 0.039 | [2] 0.052 | [3] -0.017 | [4] -0.024 | [5] -0.025

2 entries drawn at random from those above, as already listed:
FRA10AC1 (UniProt Q70Z53)
inactive: [1] 0.033 | [2] 0.009 | [3] 0.008 | [4] -0.012 | [5] 0.061

GAMT (UniProt Q14353)
inactive: [1] -0.025 | [2] -0.083 | [3] -0.002 | [4] 0.114 | [5] 0.005

(further entries)

GDAP2 (UniProt Q9NXN4)
inactive: [1] -0.031 | [2] -0.021 | [3] 0.008 | [4] 0.084 | [5] 0.047

GAN (UniProt Q9H2C0)
inactive: [1] 0.045 | [2] 0.012 | [3] 0.036 | [4] -0.025 | [5] -0.083

GFOD2 (UniProt Q3B7J2)
inactive: [1] 0.081 | [2] 0.022 | [3] 0.06 | [4] -0.168 | [5] 0.002

FTSJ1 (UniProt Q9UET6)
inactive: [1] 0.016 | [2] 0.013 | [3] -0.025 | [4] -0.005 | [5] 0.048

GALNT10 (UniProt Q86SR1)
inactive: [1] 0.119 | [2] 0.007 | [3] -0.204 | [4] -0.112

FUNDC2 (UniProt H7C0K8)
inactive: [1] -0.454 | [2] -0.094 | [3] -0.045

GAPDH (UniProt P04406)
inactive: [1] 0.004 | [2] 0.008 | [3] -0.018 | [4] 0.008 | [5] 0.052

G6PD isoform 2 (UniProt P11413)
inactive: [1] 0.023 | [2] -0.002 | [3] 0.011 | [4] 0.053 | [5] 0.075

FOXP4 (UniProt Q8IVH2)
inactive: [1] 0.092 | [2] 0.064 | [3] -0.171 | [4] 0.149 | [5] 0.009

GFM2 (UniProt Q969S9)
inactive: [1] 0.136 | [2] -0.038 | [3] 0.016 | [4] -0.013 | [5] 0.067

FUT8 (UniProt Q9BYC5)
inactive: [1] 0.035 | [2] 0.017

FUS (UniProt P35637)
inactive: [1] -0.002 | [2] -0.012 | [3] -0.038 | [4] 0.091 | [5] -0.029

GDI1 (UniProt P31150)
inactive: [1] -0.011 | [2] 0.004 | [3] -0.001 | [4] 0.025 | [5] 0.023

GALNT7 (UniProt Q86SF2)
inactive: [1] 0.035 | [2] -0.013 | [3] 0.039 | [4] 0.01 | [5] 0.066

GALNT12 (UniProt Q8IXK2)
inactive: [1] 0.017 | [2] -0.021 | [3] 0.018 | [4] -0.025 | [5] 0.007

GDPGP1 (UniProt Q6ZNW5)
inactive: [1] -0.013 | [2] -0.025 | [3] -0.059 | [4] 0.028 | [5] -0.012

GABARAPL2 (UniProt P60520)
inactive: [1] -0.031 | [2] 0.028 | [3] 0.008 | [4] 0.017 | [5] 0.034

FYTTD1 (UniProt Q96QD9)
inactive: [1] 0.142 | [2] -0.133 | [3] 0.123 | [4] 0.092

GCSH (UniProt P23434)
inactive: [1] -0.036 | [2] -0.064 | [3] -0.065 | [4] 0.018 | [5] 0.013

GDI2 (UniProt P50395)
inactive: [1] 0.011 | [2] -0.002 | [3] 0.008 | [4] 0.011 | [5] 0.083
